Binding data for nine substances are collected here from publication doi:10.1101/2025.06.26.659600.

The chains behind the UniProt entries cited, without tags or fusion partners. Where a name states a change or a piece, a line headed by the entry shows the natural chain unless it says otherwise. Residues count along the entry.
UniProt O00459, whole entry: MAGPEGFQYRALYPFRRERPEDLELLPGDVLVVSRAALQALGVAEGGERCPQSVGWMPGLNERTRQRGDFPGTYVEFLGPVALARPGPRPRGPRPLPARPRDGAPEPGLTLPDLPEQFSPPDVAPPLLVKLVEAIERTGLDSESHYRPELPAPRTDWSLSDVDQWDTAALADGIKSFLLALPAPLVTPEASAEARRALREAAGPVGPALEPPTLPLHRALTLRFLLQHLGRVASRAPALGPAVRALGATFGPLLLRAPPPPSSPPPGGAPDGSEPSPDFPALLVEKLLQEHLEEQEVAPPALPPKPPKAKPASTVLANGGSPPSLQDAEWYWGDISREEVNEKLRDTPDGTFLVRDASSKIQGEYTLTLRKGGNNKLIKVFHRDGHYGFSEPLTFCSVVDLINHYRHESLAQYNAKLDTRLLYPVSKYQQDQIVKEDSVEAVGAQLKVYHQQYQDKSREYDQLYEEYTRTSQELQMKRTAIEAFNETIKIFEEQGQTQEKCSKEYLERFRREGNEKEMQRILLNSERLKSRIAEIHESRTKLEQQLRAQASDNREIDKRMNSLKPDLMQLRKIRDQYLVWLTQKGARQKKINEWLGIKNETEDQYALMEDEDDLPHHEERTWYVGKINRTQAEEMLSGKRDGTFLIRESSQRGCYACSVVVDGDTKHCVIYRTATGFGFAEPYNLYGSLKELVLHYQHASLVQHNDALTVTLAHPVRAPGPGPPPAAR
UniProt O00329, 108-1044, stated change not applied: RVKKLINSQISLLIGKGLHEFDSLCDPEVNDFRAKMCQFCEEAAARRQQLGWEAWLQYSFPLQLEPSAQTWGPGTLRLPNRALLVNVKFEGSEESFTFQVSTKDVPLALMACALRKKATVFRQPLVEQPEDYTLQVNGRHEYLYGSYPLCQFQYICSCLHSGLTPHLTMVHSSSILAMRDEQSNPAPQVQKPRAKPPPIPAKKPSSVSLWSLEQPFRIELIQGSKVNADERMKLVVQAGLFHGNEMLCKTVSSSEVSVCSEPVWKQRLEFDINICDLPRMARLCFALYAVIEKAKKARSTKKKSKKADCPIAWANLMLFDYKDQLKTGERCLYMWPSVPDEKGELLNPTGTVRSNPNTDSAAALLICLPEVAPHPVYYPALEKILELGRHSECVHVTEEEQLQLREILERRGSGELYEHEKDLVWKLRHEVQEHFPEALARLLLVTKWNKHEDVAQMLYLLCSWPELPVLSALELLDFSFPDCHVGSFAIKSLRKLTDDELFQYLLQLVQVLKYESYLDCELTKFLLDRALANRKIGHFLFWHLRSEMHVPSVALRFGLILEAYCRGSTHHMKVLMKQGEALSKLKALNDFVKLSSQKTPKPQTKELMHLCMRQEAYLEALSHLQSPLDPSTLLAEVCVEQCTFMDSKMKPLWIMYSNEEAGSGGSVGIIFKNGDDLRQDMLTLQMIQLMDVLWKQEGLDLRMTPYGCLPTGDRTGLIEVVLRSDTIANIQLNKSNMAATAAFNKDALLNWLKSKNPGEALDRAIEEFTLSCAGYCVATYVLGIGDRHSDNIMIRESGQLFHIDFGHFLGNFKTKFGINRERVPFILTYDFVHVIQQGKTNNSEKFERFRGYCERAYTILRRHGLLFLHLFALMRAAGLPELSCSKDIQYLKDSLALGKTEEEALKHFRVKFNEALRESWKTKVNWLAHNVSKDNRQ
UniProt O00329, whole entry, looked up, stated change not applied: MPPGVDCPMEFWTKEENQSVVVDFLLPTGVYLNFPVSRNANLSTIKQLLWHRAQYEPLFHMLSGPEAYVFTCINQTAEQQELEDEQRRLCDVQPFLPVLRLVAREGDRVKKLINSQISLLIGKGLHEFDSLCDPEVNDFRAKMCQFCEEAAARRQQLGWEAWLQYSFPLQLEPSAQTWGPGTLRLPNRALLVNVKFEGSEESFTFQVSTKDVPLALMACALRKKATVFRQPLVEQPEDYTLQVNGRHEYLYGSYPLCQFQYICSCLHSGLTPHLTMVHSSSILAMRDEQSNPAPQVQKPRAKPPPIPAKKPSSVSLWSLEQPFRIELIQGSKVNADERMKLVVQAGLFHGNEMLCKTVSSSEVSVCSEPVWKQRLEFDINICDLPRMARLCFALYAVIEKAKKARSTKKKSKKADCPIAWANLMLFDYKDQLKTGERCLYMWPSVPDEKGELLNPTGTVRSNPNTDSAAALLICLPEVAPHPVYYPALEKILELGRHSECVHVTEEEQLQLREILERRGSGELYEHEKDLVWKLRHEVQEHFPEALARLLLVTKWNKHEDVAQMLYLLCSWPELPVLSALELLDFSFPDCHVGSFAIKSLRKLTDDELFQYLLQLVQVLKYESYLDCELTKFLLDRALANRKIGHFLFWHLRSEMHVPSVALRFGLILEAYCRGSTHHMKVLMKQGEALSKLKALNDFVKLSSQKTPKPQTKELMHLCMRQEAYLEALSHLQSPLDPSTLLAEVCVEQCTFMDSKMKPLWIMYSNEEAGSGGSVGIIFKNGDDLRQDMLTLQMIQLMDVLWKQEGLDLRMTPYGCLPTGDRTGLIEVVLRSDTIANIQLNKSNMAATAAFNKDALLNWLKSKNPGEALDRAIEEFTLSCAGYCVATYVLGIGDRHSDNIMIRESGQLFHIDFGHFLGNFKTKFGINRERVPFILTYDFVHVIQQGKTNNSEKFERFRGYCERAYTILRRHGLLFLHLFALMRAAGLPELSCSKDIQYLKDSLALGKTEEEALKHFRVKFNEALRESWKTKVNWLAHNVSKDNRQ
UniProt P42336, 32-108: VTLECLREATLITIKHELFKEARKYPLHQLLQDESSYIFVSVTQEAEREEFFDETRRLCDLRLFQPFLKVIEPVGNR
UniProt P42336, 109-1068, stated change not applied: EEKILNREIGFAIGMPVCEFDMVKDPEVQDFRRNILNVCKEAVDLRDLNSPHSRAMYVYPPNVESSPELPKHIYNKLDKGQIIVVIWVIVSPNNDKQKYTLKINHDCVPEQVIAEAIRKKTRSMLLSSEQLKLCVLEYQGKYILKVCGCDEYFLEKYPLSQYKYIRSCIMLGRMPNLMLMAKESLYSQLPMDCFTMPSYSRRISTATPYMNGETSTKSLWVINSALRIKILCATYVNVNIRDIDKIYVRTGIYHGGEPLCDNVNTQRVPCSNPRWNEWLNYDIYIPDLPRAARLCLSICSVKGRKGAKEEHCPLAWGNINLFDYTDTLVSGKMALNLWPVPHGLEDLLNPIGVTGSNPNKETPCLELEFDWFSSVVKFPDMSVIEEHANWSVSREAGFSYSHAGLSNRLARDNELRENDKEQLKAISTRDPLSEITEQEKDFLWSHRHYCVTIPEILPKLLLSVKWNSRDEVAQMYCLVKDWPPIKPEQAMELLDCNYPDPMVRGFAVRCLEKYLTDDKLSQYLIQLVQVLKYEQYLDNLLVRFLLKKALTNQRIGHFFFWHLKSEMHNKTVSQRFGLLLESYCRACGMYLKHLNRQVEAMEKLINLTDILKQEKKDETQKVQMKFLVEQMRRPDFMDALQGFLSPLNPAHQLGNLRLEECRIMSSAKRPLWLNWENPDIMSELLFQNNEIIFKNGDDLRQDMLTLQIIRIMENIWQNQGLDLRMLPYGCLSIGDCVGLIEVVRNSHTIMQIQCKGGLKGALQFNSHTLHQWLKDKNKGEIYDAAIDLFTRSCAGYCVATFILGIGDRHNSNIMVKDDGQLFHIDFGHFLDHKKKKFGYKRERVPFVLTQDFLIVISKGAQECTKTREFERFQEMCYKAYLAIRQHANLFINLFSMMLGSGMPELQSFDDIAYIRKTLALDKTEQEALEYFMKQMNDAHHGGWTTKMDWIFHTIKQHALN
UniProt P42338, whole entry: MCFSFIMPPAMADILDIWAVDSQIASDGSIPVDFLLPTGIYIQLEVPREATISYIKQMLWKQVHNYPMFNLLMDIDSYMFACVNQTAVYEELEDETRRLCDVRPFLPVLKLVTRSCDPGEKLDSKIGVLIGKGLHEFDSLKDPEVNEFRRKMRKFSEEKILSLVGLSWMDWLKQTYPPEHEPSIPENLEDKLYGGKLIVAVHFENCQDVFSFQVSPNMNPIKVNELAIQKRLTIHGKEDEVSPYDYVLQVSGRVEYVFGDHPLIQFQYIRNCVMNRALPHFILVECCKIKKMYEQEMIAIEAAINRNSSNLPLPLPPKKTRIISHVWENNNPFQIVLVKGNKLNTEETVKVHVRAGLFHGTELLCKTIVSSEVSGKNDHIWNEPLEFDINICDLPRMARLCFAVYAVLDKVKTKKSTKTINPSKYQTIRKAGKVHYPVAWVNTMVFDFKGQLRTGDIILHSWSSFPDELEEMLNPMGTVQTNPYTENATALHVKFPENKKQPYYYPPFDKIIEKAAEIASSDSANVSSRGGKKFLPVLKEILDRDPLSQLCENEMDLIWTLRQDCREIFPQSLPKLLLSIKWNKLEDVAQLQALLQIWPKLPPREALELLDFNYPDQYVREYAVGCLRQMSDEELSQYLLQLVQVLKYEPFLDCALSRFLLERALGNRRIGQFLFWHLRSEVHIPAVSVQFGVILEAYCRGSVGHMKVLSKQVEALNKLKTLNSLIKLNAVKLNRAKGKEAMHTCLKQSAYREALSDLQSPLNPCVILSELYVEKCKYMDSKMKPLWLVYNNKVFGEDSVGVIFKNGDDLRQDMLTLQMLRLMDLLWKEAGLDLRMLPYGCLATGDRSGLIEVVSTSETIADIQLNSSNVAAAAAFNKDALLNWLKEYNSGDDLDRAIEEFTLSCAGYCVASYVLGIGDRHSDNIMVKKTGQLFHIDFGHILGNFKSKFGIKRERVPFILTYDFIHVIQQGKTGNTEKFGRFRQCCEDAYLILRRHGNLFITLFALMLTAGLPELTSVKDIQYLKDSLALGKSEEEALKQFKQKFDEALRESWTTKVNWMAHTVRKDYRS
UniProt P42338, 41-118: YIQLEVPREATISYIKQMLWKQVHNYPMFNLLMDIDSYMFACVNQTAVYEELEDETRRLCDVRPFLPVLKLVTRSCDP
UniProt P42338, 119-1070, stated change not applied: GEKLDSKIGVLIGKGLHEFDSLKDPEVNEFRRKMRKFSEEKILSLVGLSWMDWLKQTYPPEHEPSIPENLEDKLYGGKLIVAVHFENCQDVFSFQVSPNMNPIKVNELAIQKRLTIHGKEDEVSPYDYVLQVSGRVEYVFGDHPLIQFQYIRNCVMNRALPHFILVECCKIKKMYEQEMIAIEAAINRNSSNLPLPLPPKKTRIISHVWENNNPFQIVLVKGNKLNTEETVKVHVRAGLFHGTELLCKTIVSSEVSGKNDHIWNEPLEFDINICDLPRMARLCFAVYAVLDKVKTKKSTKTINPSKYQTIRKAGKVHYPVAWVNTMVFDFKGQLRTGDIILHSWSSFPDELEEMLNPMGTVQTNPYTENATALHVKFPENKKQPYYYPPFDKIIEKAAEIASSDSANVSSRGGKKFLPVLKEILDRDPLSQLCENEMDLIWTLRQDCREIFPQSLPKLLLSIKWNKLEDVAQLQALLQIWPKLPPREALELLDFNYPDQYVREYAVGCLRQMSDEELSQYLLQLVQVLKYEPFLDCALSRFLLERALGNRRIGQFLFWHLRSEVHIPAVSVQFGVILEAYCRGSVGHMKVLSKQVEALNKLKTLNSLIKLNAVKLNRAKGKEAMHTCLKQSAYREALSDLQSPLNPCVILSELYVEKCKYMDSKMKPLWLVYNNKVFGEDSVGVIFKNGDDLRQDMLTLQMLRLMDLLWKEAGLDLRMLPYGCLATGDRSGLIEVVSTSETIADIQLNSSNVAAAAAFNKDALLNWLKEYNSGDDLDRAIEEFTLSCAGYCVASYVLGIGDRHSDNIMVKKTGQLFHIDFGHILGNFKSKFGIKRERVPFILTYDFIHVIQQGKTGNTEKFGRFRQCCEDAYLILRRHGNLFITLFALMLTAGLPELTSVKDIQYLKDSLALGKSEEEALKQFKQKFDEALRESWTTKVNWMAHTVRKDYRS

These are yes or no findings as the source states them, for the method shown. Binding seen in cells or lysates may run through a third protein. Some results given as binding are weak or reduced against the parent protein; the word gives no strength.

In the test the target is HA-tagged p85β (UniProt O00459). In words: co-IP.
As to “p110δ P94A/P97A (from UniProt O00329 1-1044)”, the binding result is on record as “binds”.
Then “p110α ΔABD [109–1068] (from UniProt P42336 109-1068) (domain or fragment)”, with “no binding”; and “p110β P104A/P107A (from UniProt P42338 1-1070)”, with “binds”.
With “p110β ΔABD [119–1070] (from UniProt P42338 119-1070) (domain or fragment)” the entry was “no binding”; with “p110β ABD [41–118] (from UniProt P42338 41-118) (domain or fragment)”, “binds”.
In the case of “FLAG-tagged wild type p110β (from UniProt P42338 1-1070)”, the binding result is on record as “binds”.
Then “p110δ ΔABD [108–1044] (from UniProt O00329 108-1044) (domain or fragment)”, with “no binding”; and “p110β ABD [41–118] P/A (from UniProt P42338 41-118) (domain or fragment)”, with “no binding”; and “p110α ABD [32–108] (from UniProt P42336 32-108) (domain or fragment)”, with “binds”.
